According to article doi:10.1101/2023.01.23.525126:
These are yes or no findings as the source states them, for the method shown. Binding seen in cells or lysates may run through a third protein. Some binding calls cover weakened binding; strength is not graded here. Tags and fused reporters may be left off the sequences shown.

Protein sequences, listed by entry. Tags and fused reporters are not part of them. Residues count along the entry.
UniProt Q00960, residues 27-1482: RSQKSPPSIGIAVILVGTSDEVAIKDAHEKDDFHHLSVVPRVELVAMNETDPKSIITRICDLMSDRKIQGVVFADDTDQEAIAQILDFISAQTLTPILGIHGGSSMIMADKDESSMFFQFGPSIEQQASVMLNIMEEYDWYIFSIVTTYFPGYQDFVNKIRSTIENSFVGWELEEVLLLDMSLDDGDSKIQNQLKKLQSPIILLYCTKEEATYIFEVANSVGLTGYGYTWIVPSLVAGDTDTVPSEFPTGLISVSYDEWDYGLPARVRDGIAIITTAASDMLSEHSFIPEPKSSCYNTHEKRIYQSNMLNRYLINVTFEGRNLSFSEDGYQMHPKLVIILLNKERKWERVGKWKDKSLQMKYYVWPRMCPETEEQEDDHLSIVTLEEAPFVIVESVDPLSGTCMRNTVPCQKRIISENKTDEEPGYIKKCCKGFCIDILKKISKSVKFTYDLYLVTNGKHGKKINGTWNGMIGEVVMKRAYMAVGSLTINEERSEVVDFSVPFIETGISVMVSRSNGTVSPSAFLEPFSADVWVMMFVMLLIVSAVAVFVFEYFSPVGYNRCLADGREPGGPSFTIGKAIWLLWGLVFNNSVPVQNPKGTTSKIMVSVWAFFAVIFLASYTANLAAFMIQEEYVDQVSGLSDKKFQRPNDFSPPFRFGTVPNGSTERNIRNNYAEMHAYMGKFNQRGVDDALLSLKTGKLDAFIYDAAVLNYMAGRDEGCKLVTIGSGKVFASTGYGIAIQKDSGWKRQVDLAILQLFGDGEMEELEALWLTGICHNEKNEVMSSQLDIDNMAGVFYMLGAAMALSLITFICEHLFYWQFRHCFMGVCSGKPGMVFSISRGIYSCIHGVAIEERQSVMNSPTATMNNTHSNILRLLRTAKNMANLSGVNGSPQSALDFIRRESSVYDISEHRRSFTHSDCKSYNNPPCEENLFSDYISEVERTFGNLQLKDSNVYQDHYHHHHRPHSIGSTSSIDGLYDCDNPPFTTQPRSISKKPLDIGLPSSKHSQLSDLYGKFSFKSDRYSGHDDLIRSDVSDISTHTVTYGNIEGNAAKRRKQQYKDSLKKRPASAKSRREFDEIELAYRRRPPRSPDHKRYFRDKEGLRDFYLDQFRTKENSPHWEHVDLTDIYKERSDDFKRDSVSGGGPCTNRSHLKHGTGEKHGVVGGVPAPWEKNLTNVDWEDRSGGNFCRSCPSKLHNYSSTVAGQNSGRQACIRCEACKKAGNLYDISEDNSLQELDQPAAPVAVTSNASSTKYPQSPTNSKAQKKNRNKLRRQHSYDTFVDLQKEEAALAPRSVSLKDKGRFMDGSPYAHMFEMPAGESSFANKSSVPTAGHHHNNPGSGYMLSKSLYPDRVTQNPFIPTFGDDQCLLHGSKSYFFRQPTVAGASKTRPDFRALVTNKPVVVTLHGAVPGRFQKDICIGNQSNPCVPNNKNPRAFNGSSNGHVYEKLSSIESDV

Biological target: T1, DRACC1 (Disordered Region And Coiled-Coil Domain 1; FAM81A), DRACC1-FLAG (mouse) (UniProt Q3UXZ6)
T1 sequence: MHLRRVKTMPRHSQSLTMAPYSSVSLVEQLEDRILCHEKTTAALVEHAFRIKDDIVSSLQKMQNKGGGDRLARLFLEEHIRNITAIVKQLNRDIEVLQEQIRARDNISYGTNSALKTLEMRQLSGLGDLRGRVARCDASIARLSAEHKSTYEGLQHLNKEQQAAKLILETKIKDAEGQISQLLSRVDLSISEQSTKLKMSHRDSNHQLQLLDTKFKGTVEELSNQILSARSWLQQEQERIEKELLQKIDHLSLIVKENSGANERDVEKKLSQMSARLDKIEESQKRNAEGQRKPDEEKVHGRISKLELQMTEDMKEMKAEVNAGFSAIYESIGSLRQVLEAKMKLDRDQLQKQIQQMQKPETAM
Experiment: co-IP

GFP-GluN2B (pCI-EGFP-NR2b wt) (from UniProt Q00960 27-1482) (receptor)
binding: binds
